PubChem BioAssay AID504764 | Drosophila RNAi Screening Center | 2011

Purpose: 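Genome-wide screen for regulators of Notch-driven gene expression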 (primary screen)
System: Drosophila Kc167 cells
Knock-down reagent: long dsRNA against Drosophila genes
Timing: about 5 days (4 days dsRNA, then 24 h after transfection)
Conditions: transfection of constitutively active membrane-tethered Notch lacking the extracellular domain, read 24 h later
Measured: 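Firefly luciferase from an E(spl)m3 reporter with active Notch, plus control-promoter and uninduced reporter wells for normalisation; unnormalised counts, duplicate wells a and b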
Scale: induced reporter light, run 1, well a and induced reporter light, run 1, well b: higher = more light from the Notch target reporter with active Notch; control promoter light, run 1, well a and control promoter light, run 1, well b: higher = more light from the viral control promoter (cell number, transfection, viability); uninduced reporter light, run 1, well a: higher = more light from the Notch target reporter without active Notch
Hit rule: 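Wells with low control signal or poorly matching duplicates excluded; duplicates averaged; per source plate, z beyond ±2 for induced/control log2 ratio or beyond ±1.8 for induced/uninduced marks a hit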
Calls: active = modifier hit (raised or lowered Notch signal); inactive = not a hit
The deposit covers about 22,000 reagents; below is an unselected part of those that have a named target and a result. Over the whole deposit, 403 (1.9%) are marked active. 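Unnormalised raw counts per well; ratio z-scores behind the hit calls and whether each hit raises or lowers signal are not deposited.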 Names joined by + are all predicted targets of the reagent. The record does not give: the amount of reagent.

target | amplicon | induced reporter light, run 1, well a | induced reporter light, run 1, well b | control promoter light, run 1, well a | control promoter light, run 1, well b | uninduced reporter light, run 1, well a | call
RhoGAP16F (GeneID 32790) | DRSC20025 | 1.06e5 | 1.06e5 | 98480 | 66745 | 9755 | inactive
CG15219 (GeneID 49992) | DRSC03715 | 56725 | 59305 | 51110 | 61480 | 4380 | inactive
tst (GeneID 42813) | DRSC14212 | 1.44e5 | 1.45e5 | 2.19e5 | 2.36e5 | 13630 | inactive
pre-mod(mdg4)-U + mod(mdg4) | DRSC13476 | 76615 | 83155 | 1.01e5 | 86830 | 10165 | inactive
THG (GeneID 34876) | DRSC01896 | 1.48e5 | 1.62e5 | 1.25e5 | 1.61e5 | 9970 | inactive
veli (GeneID 43003) | DRSC16276 | 1.99e5 | 1.45e5 | 1.73e5 | 1.40e5 | 12640 | inactive
CG15376 (retired record) (GeneID 31354) | DRSC18046 | 1.70e5 | 1.60e5 | 2.34e5 | 3.02e5 | 9960 | inactive
CG2336 (GeneID 40804) | DRSC12581 | 80850 | 1.11e5 | 83575 | 64135 | 6965 | inactive
MAPk-Ak2 (GeneID 44573) | DRSC18678 | 1.27e5 | 1.59e5 | 2.17e5 | 2.92e5 | 10500 | inactive
Ts (GeneID 33499) | DRSC00795 | 2.22e5 | 1.93e5 | 2.75e5 | 2.65e5 | 14940 | inactive
CG14383 (GeneID 41593) | DRSC14841 | 3.33e5 | 3.37e5 | 2.90e5 | 2.97e5 | 24625 | inactive
l(1)G0289 (GeneID 31964) | DRSC18215 | 1.92e5 | 1.82e5 | 2.71e5 | 2.34e5 | 12635 | inactive
regucalcin (GeneID 32165) | DRSC18908 | 64795 | 61790 | 83315 | 63020 | 6475 | inactive
regucalcin (GeneID 32165) | DRSC20366 | 1.04e5 | 96020 | 1.38e5 | 1.24e5 | 8700 | inactive
CG15456 (GeneID 50123) | DRSC20527 | 87295 | 80510 | 67505 | 1.00e5 | 7420 | inactive
CG33322 (GeneID 2768932) | DRSC03204 | 39100 | 29520 | 38250 | 28980 | 2955 | inactive
Hmbs (GeneID 46140) | DRSC08632 | 1.13e5 | 1.05e5 | 2.23e5 | 2.58e5 | 11705 | inactive
TAF1C-like (GeneID 37450) | DRSC04073 | 1.75e5 | 1.54e5 | 1.22e5 | 1.30e5 | 11720 | inactive
CG15252 (GeneID 31931) | DRSC17981 | 1.00e5 | 96330 | 1.65e5 | 1.54e5 | 8390 | inactive
Prp8 (GeneID 36304) | DRSC07293 | 27970 | 26295 | 17260 | 19240 | 1530 | inactive
CG15425 (GeneID 33630) | DRSC00440 | 1.92e5 | 1.29e5 | 2.19e5 | 2.12e5 | 10238 | inactive
Ggamma1 (GeneID 35881) | DRSC07435 | 1.06e5 | 1.07e5 | 1.21e5 | 83360 | 8265 | inactive
dysc (GeneID 39533) | DRSC10273 | 1.02e5 | 81085 | 1.12e5 | 1.20e5 | 6830 | inactive
dysc (GeneID 39533) | DRSC11040 | 1.53e5 | 1.21e5 | 2.61e5 | 2.03e5 | 13510 | inactive
mbm (GeneID 33194) | DRSC00319 | 2.11e5 | 2.00e5 | 2.12e5 | 2.05e5 | 18440 | inactive
CG14478 (GeneID 36964) | DRSC06450 | 1.36e5 | 77840 | 82160 | 1.00e5 | 12495 | inactive
Obp99d (GeneID 43496) | DRSC15046 | 1.10e5 | 1.19e5 | 1.60e5 | 1.44e5 | 9435 | inactive
Lap1 (GeneID 36670) | DRSC07454 | 86225 | 1.00e5 | 1.20e5 | 1.20e5 | 9090 | inactive
Cyp313a4 (GeneID 41563) | DRSC16627 | 91455 | 68435 | 83920 | 87570 | 5845 | inactive
Pkn (GeneID 35950) | DRSC06809 | 2.07e5 | 2.83e5 | 2.05e5 | 1.69e5 | 18825 | inactive
Pkn (GeneID 35950) | DRSC06810 | 1.75e5 | 1.79e5 | 1.99e5 | 1.80e5 | 15220 | inactive
Mst57Da + alpha4GT2 | DRSC13732 | 2.14e5 | 2.13e5 | 2.12e5 | 2.37e5 | 18375 | inactive
CG12885 (GeneID 43308) | DRSC14572 | 61705 | 43540 | 68880 | 74885 | 9165 | inactive
CG9899 (GeneID 37676) | DRSC04597 | 1.95e5 | 1.75e5 | 1.53e5 | 1.28e5 | 15235 | inactive

No new results follow: an excerpt of the list.
target | amplicon | induced reporter light, run 1, well a | induced reporter light, run 1, well b | control promoter light, run 1, well a | control promoter light, run 1, well b | uninduced reporter light, run 1, well a | call
Pkn (GeneID 35950) | DRSC06810 | 1.75e5 | 1.79e5 | 1.99e5 | 1.80e5 | 15220 | inactive
Mst57Da + alpha4GT2 | DRSC13732 | 2.14e5 | 2.13e5 | 2.12e5 | 2.37e5 | 18375 | inactive
CG12885 (GeneID 43308) | DRSC14572 | 61705 | 43540 | 68880 | 74885 | 9165 | inactive
